Results are given in words; binding and its absence hold for the method and conditions named. Binding seen in cells or lysates may run through a third protein. Some entries that bind do so weakly or less than the wild type.

These results are taken from publication PMC5908303.

The target of the experiment is T1, CCCTC-Binding Factor (CTCF) (human (endogenous in HeLa)) (UniProt P49711).
T1 sequence: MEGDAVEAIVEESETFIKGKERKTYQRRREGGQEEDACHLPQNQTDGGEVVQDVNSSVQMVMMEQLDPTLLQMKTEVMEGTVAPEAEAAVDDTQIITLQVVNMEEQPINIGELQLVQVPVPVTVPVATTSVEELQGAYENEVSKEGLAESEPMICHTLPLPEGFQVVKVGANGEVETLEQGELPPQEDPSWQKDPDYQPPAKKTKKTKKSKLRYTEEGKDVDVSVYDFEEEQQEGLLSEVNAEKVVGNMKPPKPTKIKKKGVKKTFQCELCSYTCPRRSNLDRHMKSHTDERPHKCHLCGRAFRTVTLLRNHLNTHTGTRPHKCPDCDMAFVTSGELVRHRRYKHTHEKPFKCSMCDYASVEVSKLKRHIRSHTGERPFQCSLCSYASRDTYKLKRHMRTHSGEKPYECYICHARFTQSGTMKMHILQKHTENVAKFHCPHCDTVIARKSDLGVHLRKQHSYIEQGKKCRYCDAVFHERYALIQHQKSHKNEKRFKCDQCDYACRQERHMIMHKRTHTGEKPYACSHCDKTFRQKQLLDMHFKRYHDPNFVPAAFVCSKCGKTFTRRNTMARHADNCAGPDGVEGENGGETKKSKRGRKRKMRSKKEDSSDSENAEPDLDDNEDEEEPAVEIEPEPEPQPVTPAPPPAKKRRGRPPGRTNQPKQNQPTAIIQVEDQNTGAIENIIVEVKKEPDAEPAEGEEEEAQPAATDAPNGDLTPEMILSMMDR
The experiment can be described thus: co-IP; HeLa extract in IP lysis buffer (50 mM Tris-HCl pH 8.0, 150 mM NaCl, 1% NP40); IP with 2 ug anti-CTCF (sc-5916) or beads without antibody, Protein A/G magnetic beads, 4°C about 16 h; five washes; Western blot for CTCF and KDM4A. Background: In western blotting, separated proteins are transferred to a membrane and probed.

B1: lysine (K)-specific demethylase 4A (KDM4A) (enzyme, UniProt O75164 1-1064)
chain: MASESETLNPSARIMTFYPTMEEFRNFSRYIAYIESQGAHRAGLAKVVPPKEWKPRASYDDIDDLVIPAPIQQLVTGQSGLFTQYNIQKKAMTVREFRKIANSDKYCTPRYSEFEELERKYWKNLTFNPPIYGADVNGTLYEKHVDEWNIGRLRTILDLVEKESGITIEGVNTPYLYFGMWKTSFAWHTEDMDLYSINYLHFGEPKSWYSVPPEHGKRLERLAKGFFPGSAQSCEAFLRHKMTLISPLMLKKYGIPFDKVTQEAGEFMITFPYGYHAGFNHGFNCAESTNFATRRWIEYGKQAVLCSCRKDMVKISMDVFVRKFQPERYKLWKAGKDNTVIDHTLPTPEAAEFLKESELPPRAGNEEECPEEDMEGVEDGEEGDLKTSLAKHRIGTKRHRVCLEIPQEVSQSELFPKEDLSSEQYEMTECPAALAPVRPTHSSVRQVEDGLTFPDYSDSTEVKFEELKNVKLEEEDEEEEQAAAALDLSVNPASVGGRLVFSGSKKKSSSSLGSGSSRDSISSDSETSEPLSCRAQGQTGVLTVHSYAKGDGRVTVGEPCTRKKGSAARSFSERELAEVADEYMFSLEENKKSKGRRQPLSKLPRHHPLVLQECVSDDETSEQLTPEEEAEETEAWAKPLSQLWQNRPPNFEAEKEFNETMAQQAPHCAVCMIFQTYHQVEFGGFNQNCGNASDLAPQKQRTKPLIPEMCFTSTGCSTDINLSTPYLEEDGTSILVSCKKCSVRVHASCYGVPPAKASEDWMCSRCSANALEEDCCLCSLRGGALQRANDDRWVHVSCAVAILEARFVNIAERSPVDVSKIPLPRFKLKCIFCKKRRKRTAGCCVQCSHGRCPTAFHVSCAQAAGVMMQPDDWPFVVFITCFRHKIPNLERAKGALQSITAGQKVISKHKNGRFYQCEVVRLTTETFYEVNFDDGSFSDNLYPEDIVSQDCLQFGPPAEGEVVQVRWTDGQVYGAKFVASHPIQMYQVEFEDGSQLVVKRDDVYTLDEELPKRVKSRLSVASDMRFNEIFTEKEVKQEKKRQRVINSRYREDYIEPALYRAIME
On to B1, for which the binding result is “binds”.
